This is an account of results in the supplement of paper PMC4604168 (melanoma cell lines).

The other results are listed elsewhere or left out. Single values are uncertain, as repeats are few or missing.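 Cells were imaged in 1,536-well plates, and nuclei stained with an antibody against cleaved PARP were counted against all DNA-stained nuclei to give the apoptosis fraction. Screening doses were chosen to leave most cells alive, and resting and induced cleaved-PARP levels differ strongly between cell lines.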

The first assay has as its system SkMel28. As to the kind of experiment: cleaved PARP positive nuclei fraction relative to DMSO control; melanoma cells; higher = more apoptosis. As to conditions: library dose: low library concentration; 72 h.
Turning to `Cc1cc(Nc2cc(N3CCN(C)CC3)nc(Sc3ccc(NC(=O)C4CC4)cc3)n2)n[nH]1` [Tozasertib] + O=C(O)[C@@H]1[O][Sb](=[O])([O][Sb]2(=[O])[O][C@H]([C@H](O)CO)[C@H](O)[C@H](C(=O)O)[O]2)[O][C@H]([C@H](O)CO)[C@@H]1O [stibogluconate] (first compound 0.006 µM, partner dose 2 µM), the “cleaved PARP positive nuclei fraction” value came out at 28.6%.
As for `O=C(/C=C/c1cccnc1)NCCCCC1CCN(C(=O)c2ccccc2)CC1` + Nc1ccn([C@@H]2O[C@H](CO)[C@@H](O)C2(F)F)c(=O)n1 [gemcitabine] (first compound 0.01 µM, partner dose 0.0004 µM), the “cleaved PARP positive nuclei fraction” value was 28.8%.
Consider `O=C(/C=C/c1cccnc1)NCCCCC1CCN(C(=O)c2ccccc2)CC1` + O=C(O)c1ccc2c(c1)nc(Nc1cccc(Cl)c1)c1ccncc12 [CX4945] (first compound 0.01 µM, partner dose 0.4 µM), for which the “cleaved PARP positive nuclei fraction” value was 86.1%.
Regarding `O=C(/C=C/c1cccnc1)NCCCCC1CCN(C(=O)c2ccccc2)CC1` + Cc1ccc(Nc2nccc(N(C)c3ccc4c(C)n(C)nc4c3)n2)cc1S(N)(=O)=O [Pazopanib] (first compound 0.01 µM, partner dose 0.4 µM), the “cleaved PARP positive nuclei fraction” value amounted to 112%.
`Cc1cc(Nc2cc(N3CCN(C)CC3)nc(Sc3ccc(NC(=O)C4CC4)cc3)n2)n[nH]1` [Tozasertib] + CC(C)C[C@H](NC(=O)[C@H](Cc1ccccc1)NC(=O)c1cnccn1)B(O)O [Bortezomib] (first compound 0.006 µM, partner dose 0.001 µM): the “cleaved PARP positive nuclei fraction” value turned out to be 75.5%.
Consider `Cc1ccc(Nc2nccc(N(C)c3ccc4c(C)n(C)nc4c3)n2)cc1S(N)(=O)=O` [Pazopanib] + Cn1c(=O)n(-c2ccc(C(C)(C)C#N)cc2)c2c3cc(-c4cnc5ccccc5c4)ccc3ncc21 [NVP-BEZ235] (first compound 0.4 µM, partner dose 0.004 µM), for which the “cleaved PARP positive nuclei fraction” value came to 104%.
On the same count and under the same terms, the same measure for `Cc1cc(Nc2cc(N3CCN(C)CC3)nc(Sc3ccc(NC(=O)C4CC4)cc3)n2)n[nH]1` [Tozasertib] + CS(=O)(=O)CCNCc1ccc(-c2ccc3ncnc(Nc4ccc(OCc5cccc(F)c5)c(Cl)c4)c3c2)o1 [lapatinib] (first compound 0.006 µM, partner dose 0.8 µM): 71.2%; for `Cc1ccc(Nc2nccc(N(C)c3ccc4c(C)n(C)nc4c3)n2)cc1S(N)(=O)=O` [Pazopanib] + Nc1nc(F)nc2c1ncn2[C@@H]1O[C@H](CO)[C@@H](O)[C@@H]1O [fludarabine] (first compound 0.4 µM, partner dose 0.2 µM): 53.1%.
On to `N#CC[C@H](C1CCCC1)n1cc(-c2ncnc3[nH]ccc23)cn1` [ruxolitinib] + CC(=O)c1c(C)c2cnc(Nc3ccc(N4CCNCC4)cn3)nc2n(C2CCCC2)c1=O [palbociclib] (first compound 1 µM, partner dose 0.04 µM), for which the “cleaved PARP positive nuclei fraction” value was 72.3%.
Same read-out and setting: to `O=C(Nc1cc(C(F)(F)F)cc(C(F)(F)F)c1)c1cc(Cl)ccc1O` + Nc1nc(F)nc2c1ncn2[C@@H]1O[C@H](CO)[C@@H](O)[C@@H]1O [fludarabine] (first compound 0.016 µM, partner dose 0.2 µM) belongs 80.4%.
The same measure, in the same setting: to `O=C(Nc1cc(C(F)(F)F)cc(C(F)(F)F)c1)c1cc(Cl)ccc1O` + O=C(/C=C/c1cccnc1)NCCCCC1CCN(C(=O)c2ccccc2)CC1 [FK866] (first compound 0.016 µM, partner dose 0.01 µM) belongs 79.9%.

A further assay deals with SkMel2. Described as above. The note with it: library dose: low library concentration; 72 h.
With `N#CC[C@H](C1CCCC1)n1cc(-c2ncnc3[nH]ccc23)cn1` [ruxolitinib] + C=CCNC1=C2C[C@@H](C)C[C@H](OC)[C@H](O)[C@@H](C)/C=C(\C)[C@H](OC(N)=O)[C@@H](OC)/C=C\C=C(/C)C(=O)NC(=CC1=O)C2=O [Tanespimycin] (first compound 1 µM, partner dose 0.002 µM), the “cleaved PARP positive nuclei fraction” value came out at 146%.
Still for that read-out and setting: the same measure for `Cc1cn(-c2cc(NC(=O)c3ccc(C)c(Nc4nccc(-c5cccnc5)n4)c3)cc(C(F)(F)F)c2)cn1` [nilotinib] + COCC[n+]1c2c(n(Cc3cnccn3)c1C)C(=O)c1ccccc1C2=O [YM155] (first compound 0.2 µM, partner dose 0.0004 µM): 180%.
Take `Cc1cn(-c2cc(NC(=O)c3ccc(C)c(Nc4nccc(-c5cccnc5)n4)c3)cc(C(F)(F)F)c2)cn1` [nilotinib] + CCN(CC)CCNC(=O)c1c(C)[nH]c(/C=C2\C(=O)Nc3ccc(F)cc32)c1C [sunitinib] (first compound 0.2 µM, partner dose 0.4 µM): the “cleaved PARP positive nuclei fraction” value was found to be 124%.
On the same count and under the same terms, the same measure for `COc1cc([C@@H]2c3cc4c(cc3[C@@H](O[C@@H]3O[C@@H]5CO[C@@H](C)O[C@H]5[C@H](O)[C@H]3O)[C@H]3COC(=O)[C@H]23)OCO4)cc(OC)c1O` [etoposide] + CNC(=O)c1cc(Oc2ccc(NC(=O)Nc3ccc(Cl)c(C(F)(F)F)c3)cc2)ccn1 [sorafenib] (first compound 0.02 µM, partner dose 0.4 µM): 81.4%.
Same read-out and setting: the same measure for `Cc1cc(Nc2cc(N3CCN(C)CC3)nc(Sc3ccc(NC(=O)C4CC4)cc3)n2)n[nH]1` [Tozasertib] + CN1CCN(c2ccc3nc(-c4c(N)c5c(F)cccc5[nH]c4=O)[nH]c3c2)CC1 [Dovitinib] (first compound 0.006 µM, partner dose 0.1 µM): 86.3%; for `COc1cc([C@@H]2c3cc4c(cc3[C@@H](O[C@@H]3O[C@@H]5CO[C@@H](C)O[C@H]5[C@H](O)[C@H]3O)[C@H]3COC(=O)[C@H]23)OCO4)cc(OC)c1O` [etoposide] + Nc1cccc2c1CN(C1CCC(=O)NC1=O)C2=O [lenalidomide] (first compound 0.02 µM, partner dose 1 µM): 50.8%; for `CC[C@]1(O)C[C@H]2CN(CCc3c([nH]c4ccccc34)[C@@](C(=O)OC)(c3cc4c(cc3OC)N(C=O)[C@H]3[C@@](O)(C(=O)OC)[C@H](OC(C)=O)[C@]5(CC)C=CCN6CC[C@]43[C@@H]65)C2)C1` [vincristine] + Cc1cn(-c2cc(NC(=O)c3ccc(C)c(Nc4nccc(-c5cccnc5)n4)c3)cc(C(F)(F)F)c2)cn1 [nilotinib] (first compound 0.0001 µM, partner dose 0.2 µM): 198%.
Take `N#CC[C@H](C1CCCC1)n1cc(-c2ncnc3[nH]ccc23)cn1` [ruxolitinib] + Nc1cccc2c1CN(C1CCC(=O)NC1=O)C2=O [lenalidomide] (first compound 1 µM, partner dose 1 µM): the “cleaved PARP positive nuclei fraction” value came out at 74.5%.
Take `N#CC[C@H](C1CCCC1)n1cc(-c2ncnc3[nH]ccc23)cn1` [ruxolitinib] + COCC[n+]1c2c(n(Cc3cnccn3)c1C)C(=O)c1ccccc1C2=O [YM155] (first compound 1 µM, partner dose 0.0004 µM): the “cleaved PARP positive nuclei fraction” value was determined as 125%.
Still for that read-out and setting: the same measure for `CCCCCCCCCCCCCCCCCCOP(=O)([O-])OC1CC[N+](C)(C)CC1` [Perifosine] + O=C(O)[C@@H]1[O][Sb](=[O])([O][Sb]2(=[O])[O][C@H]([C@H](O)CO)[C@H](O)[C@H](C(=O)O)[O]2)[O][C@H]([C@H](O)CO)[C@@H]1O [stibogluconate] (first compound 0.4 µM, partner dose 2 µM): 82.2%.
For `O=c1[nH]nc(Sc2ncc([N+](=O)[O-])s2)n1-c1ccc2c(c1)OCCO2` + Nc1ncn([C@H]2C[C@H](O)[C@@H](CO)O2)c(=O)n1 [decitabine] (first compound 0.2 µM, partner dose 0.1 µM), the “cleaved PARP positive nuclei fraction” value is 61.2%.
On the same count and under the same terms, to `O=C(Nc1cc(C(F)(F)F)cc(C(F)(F)F)c1)c1cc(Cl)ccc1O` + CC(C)C[C@H](NC(=O)[C@H](Cc1ccccc1)NC(=O)c1cnccn1)B(O)O [Bortezomib] (first compound 0.016 µM, partner dose 0.001 µM) belongs 46%; to `N#CC[C@H](C1CCCC1)n1cc(-c2ncnc3[nH]ccc23)cn1` [ruxolitinib] + C[C@]1(O)C[C@@H](c2nc(-c3ccc4ccc(-c5ccccc5)nc4c3)c3c(N)nccn32)C1 [OSI906] (first compound 1 µM, partner dose 0.4 µM), 31.1%; to `Cc1cc(Nc2cc(N3CCN(C)CC3)nc(Sc3ccc(NC(=O)C4CC4)cc3)n2)n[nH]1` [Tozasertib] + CNC(=O)c1cc(Oc2ccc(NC(=O)Nc3ccc(Cl)c(C(F)(F)F)c3)cc2)ccn1 [sorafenib] (first compound 0.006 µM, partner dose 0.4 µM), 57.9%.
On the same count and under the same terms, the same measure for `Cc1ccc(Nc2nccc(N(C)c3ccc4c(C)n(C)nc4c3)n2)cc1S(N)(=O)=O` [Pazopanib] + CN1CCN(c2ccc3nc(-c4c(N)c5c(F)cccc5[nH]c4=O)[nH]c3c2)CC1 [Dovitinib] (first compound 0.4 µM, partner dose 0.1 µM): 70.5%; for `Cc1cn(-c2cc(NC(=O)c3ccc(C)c(Nc4nccc(-c5cccnc5)n4)c3)cc(C(F)(F)F)c2)cn1` [nilotinib] + Cn1c(=O)n(-c2ccc(C(C)(C)C#N)cc2)c2c3cc(-c4cnc5ccccc5c4)ccc3ncc21 [NVP-BEZ235] (first compound 0.2 µM, partner dose 0.004 µM): 92.7%; for `O=c1[nH]nc(Sc2ncc([N+](=O)[O-])s2)n1-c1ccc2c(c1)OCCO2` + C=CCNC1=C2C[C@@H](C)C[C@H](OC)[C@H](O)[C@@H](C)/C=C(\C)[C@H](OC(N)=O)[C@@H](OC)/C=C\C=C(/C)C(=O)NC(=CC1=O)C2=O [Tanespimycin] (first compound 0.2 µM, partner dose 0.002 µM): 138%.
